# In PubChem BioAssay AID2561 (National Center for Advancing Translational Sciences (NCATS), 2010):
# The chains behind the UniProt entries cited, without tags or fusion partners. Where a name states a change or a piece, a line headed by the entry shows the natural chain unless it says otherwise.
# UniProt Q27686: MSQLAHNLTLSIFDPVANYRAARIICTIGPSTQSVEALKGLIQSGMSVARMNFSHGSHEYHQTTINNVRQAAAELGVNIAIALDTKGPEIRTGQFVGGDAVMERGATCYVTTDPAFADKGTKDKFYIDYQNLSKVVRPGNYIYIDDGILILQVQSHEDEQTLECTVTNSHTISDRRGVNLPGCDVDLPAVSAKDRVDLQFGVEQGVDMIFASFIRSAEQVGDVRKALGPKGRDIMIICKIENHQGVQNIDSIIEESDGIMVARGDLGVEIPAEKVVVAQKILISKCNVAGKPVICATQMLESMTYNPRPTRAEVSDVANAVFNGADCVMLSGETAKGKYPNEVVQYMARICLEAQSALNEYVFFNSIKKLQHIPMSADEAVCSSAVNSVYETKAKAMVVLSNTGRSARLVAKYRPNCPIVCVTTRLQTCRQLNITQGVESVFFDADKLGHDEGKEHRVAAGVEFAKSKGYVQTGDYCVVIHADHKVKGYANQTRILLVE
# Where “and” joins values, the source holds several entries; their conditions need not be identical. Equal entries are not always repeated. This list was built around the results that the source calls inconclusive (neither active nor inactive); the mix of calls is not that of the screen. Potencies beside an inconclusive call are fits to weak or partial responses and may not hold up. Calls of active or inactive are those of the source. Calls follow the shape of the dose curve; as a rule, active = well fitted inhibition curve with a large enough effect; inconclusive = small, poorly fitted or top-dose-only effect, or effect the other way; inactive = flat fitted curve, though single readings scatter.
# Biological target: Pyruvate kinase (Leishmania mexicana) (UniProt Q27686)
# Assay: Confirmation Assay for Inhibitors of Leishmania Mexicana Pyruvate Kinase (LmPK): for Probe SAR;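 as to activity change, negative = inhibition: plate controls were uninhibited enzyme for no effect and no enzyme wells for full effect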
# Details: purified LmPK, ATP generation, Kinase-Glo luminescence; series mostly up to 57.5 µM; activity change, negative = inhibition: at the top concentration
# Text: NIH Chemical Genomics Center [NCGC] Malcolm Walkinshaw, Hugh Morgan, Linda Gilmore University of Edinburgh, UK MLPCN Grant: 1 R03 MH085697-01 NCGC Assay Overview: Pyruvate kinase (L. Mexicana) (LmPK) enzyme was supplied as a highly purified (>95% pure) sulphate-free preparation from University of Edinburgh, UK and assayed for its ability to generate ATP from ADP using phosphoenolpyruvate (PEP) as a substrate. ATP generation was detected in a coupled reaction by luciferase-mediated luminescence, an ATP-dependent process. Pyruvate kinase substrates, PEP and ADP, were present in the assay at Km and approximately 10-fold below Km respectively. The enzyme was assayed at an intermediate level of activity to screen for both inhibitors and activators.
# NCGC Assay Protocol Summary: Three uL of enzyme mix (kept on ice) in assay buffer (50 mM Imidazole pH7.2, 50 mM KCl, 7 mM MgCl2, 0.01% Tween 20, 0.05% BSA) containing PEP (0.5 mM final concentration) and LmPK (0.1 nM final concentration) was dispensed into white solid bottom 1,536 well microtiter plates. 23 nL of compound were delivered by a pin tool and 1 uL of ADP mix in assay buffer (r.t; 0.1 mM final ADP concentration) was added. Plates were incubated at room temperature for 1 hour. Two uL of detection mix (Kinase-Glo, Promega; at 4 degree Celsius protected from light) was added and luminescence read by a ViewLux (Perkin Elmer) at 1 second exposure/plate. Data were normalized to the uninhibited and AC100 inhibition (no enzyme). To monitor activation, the first column contained a five-fold concentration of LmPK (0.5 nM).
# Potency is read from the fitted curve at half-maximal effect.
SMILES,Potency,"activity change, negative = inhibition"
O=C1c2ccccc2C(=O)N1c1ccccc1O,"inconclusive: 0.013 µM [activator, full curve, poor fit]",
Cc1ccc(C)c(S)c1,"inconclusive: 0.206 µM [activator, full curve, poor fit]",
O=C1NS(=O)(=O)C(c2ccccc2)C1c1ccccc1 (stereo not given),,inactive: 0.126%
O=C1NS(=O)(=O)c2cc(Cl)ccc21,,inactive: -0.814%
CNc1cccc(S(=O)(=O)N2CCN(S(=O)(=O)c3ccc4c(c3)OCCO4)CC2)c1,,inactive: -4.57%
CC(=O)N1CCCc2cc(S(=O)(=O)Nc3ccc(C)c(C)c3)ccc21,"inconclusive: 21.1 µM [activator, partial curve, poor fit]",
Cc1ccc(NS(=O)(=O)c2cc3c(cc2-c2cn[nH]c2)NC(=O)CO3)cc1C,"inconclusive: 0.103 µM [activator, full curve, poor fit]",
O=C1c2ccccc2C(=O)N1c1ccncc1,"inconclusive: 46.1 µM [activator, partial curve, poor fit]",
N#Cc1cccnc1SC1=NS(=O)(=O)c2ccccc21,active: 16.3 µM,
O=C(O)c1ccccc1SC1=NS(=O)(=O)c2ccccc21,active: 4.61 µM and active: 8.91 µM,
Cn1c2cc(S(C)=O)sc2c2cnn(Cc3cccc(O)c3)c(=O)c21 (stereo not given),"inconclusive: 0.15 µM [activator, full curve]",
O=C1c2ccccc2C(=O)N1c1cccc(Cl)c1,"inconclusive: 0.0029 µM [activator, full curve, poor fit]",
Nc1ccc2c(c1)C(=O)NS2(=O)=O,,inactive: 2.28%
O=C1CCc2cc(S(=O)(=O)Nc3ccccc3-c3ccccc3)ccc2N1,inconclusive: 0.0001 µM [activator],
O=C1c2ccccc2C(=O)N1c1cccc2cnccc12,"inconclusive: 0.0231 µM [activator, full curve]",
Cc1ccc(NS(=O)(=O)c2ccc3c(c2)CCN(C(=O)C(F)(F)F)C3)cc1C,,inactive: 9.77%
Cc1ccc(NS(=O)(=O)c2cccc(Cl)c2)cc1C,,inactive: 14.4%
Cc1ccc(NS(=O)(=O)c2ccc3c(c2)CCO3)cc1C,"inconclusive: 84.1 µM [activator, single point]",
Cc1ccc(C)c(OC2=NS(=O)(=O)c3ccccc32)c1,active: 2.59 µM,
Cc1cc(N2C(=O)c3ccccc3C2=O)no1,"inconclusive: 0.58 µM [activator, full curve]",

SMILES,Potency,"activity change, negative = inhibition"
O=S1(=O)N=C(Oc2ccc(Cl)cc2)c2ccccc21,"inconclusive: 21.6 µM [activator, full curve, poor fit]",
O=C1CCc2cc(S(=O)(=O)Nc3ccccc3F)ccc2N1,inconclusive: 0.0004 µM [activator],
Cc1ccc(C)c(O)c1,,inactive: -3.02%
O=S1(=O)N=C(Oc2ccc(-c3ccccc3)cc2)c2ccccc21,active: 4.11 µM,
CCSC1=NS(=O)(=O)c2ccccc21,"inconclusive: 23.1 µM [falling, partial curve, poor fit]",
COc1ccccc1OC1=NS(=O)(=O)c2ccccc21,active: 4.31 µM,
Cc1cccc(NS(=O)(=O)c2ccc3c(c2)CCC(=O)N3)c1,,inactive: -10.1%
Cc1ccc(NS(=O)(=O)c2cc3c(cc2N(C)C)NC(=O)CC3)cc1C,,inactive: 5.95%
Fc1ccccc1-c1ccc(-c2nc3ccc(Cl)cn3c2Nc2ccc(Cl)cc2)o1,"inconclusive: 6.51 µM [falling, partial curve]",
O=C1c2ccccc2C(=O)C1c1nccc2ccccc12,active: 18.3 µM,
COc1cc(F)c(S(=O)(=O)N2CCCN(S(=O)(=O)c3cccc(N)c3)CC2)c(F)c1,"inconclusive: 0.0015 µM [activator, full curve, poor fit]",
N#Cc1ccc(OC2=NS(=O)(=O)c3ccccc32)cc1,"inconclusive: 20.6 µM [falling, partial curve]",
O=C1c2ccccc2C(=O)N1c1cc(=O)c2ccccc2[nH]1,active: 3.26 µM,
O=C1CCc2cc(S(=O)(=O)Nc3cccc(Cl)c3)ccc2N1,"inconclusive: 0.0461 µM [activator, full curve, poor fit]",
COc1ccc(S(=O)(=O)Nc2ccc(C)c(C)c2)cc1,"inconclusive: 1.16 µM [activator, full curve, poor fit]",
Cc1ccc(NS(=O)(=O)c2cc3c(cc2-c2ccco2)NC(=O)CO3)cc1C,,inactive: 9.07%
O=C1c2ccccc2C(=O)N1c1cccc(=O)[nH]1,"inconclusive: 2.31 µM [activator, full curve]",
O=C1CCc2cc(S(=O)(=O)Nc3ccccn3)ccc2N1,"inconclusive: 0.0326 µM [activator, full curve]",
O=S1(=O)N=C(Oc2ccccc2Br)c2ccccc21,active: 5.8 µM,
O=C1CCc2cc(S(=O)(=O)Nc3ccc(Cl)cc3)ccc2N1,"inconclusive: 0.0231 µM [activator, full curve]",

# 2 entries drawn at random from the list so far:
SMILES,Potency,"activity change, negative = inhibition"
O=C1c2ccccc2C(=O)N1c1cc(=O)c2ccccc2[nH]1,active: 3.26 µM,
O=C1c2ccccc2C(=O)N1c1cccc(=O)[nH]1,"inconclusive: 2.31 µM [activator, full curve]",
